Measured values taken from patent US10899793B2, “Melanocortin ligands and methods of use thereof” (priority 2016, dated 2021).
Some entries share one result that the patent states for a list of compounds. Square brackets hold non-standard residues; d marks the D form. Peptide text beside a SMILES is read from it. Phe(4-I) = N[C@@H](Cc1ccc(I)cc1)C(=O)O; dTic = O=C(O)[C@H]1Cc2ccccc2CN1

Protein sequences, listed by entry. Tags and fused reporters are not part of them. Lines headed by an entry give the natural chain unless they say otherwise; changes in a name come on top.
UniProt P56450, whole entry: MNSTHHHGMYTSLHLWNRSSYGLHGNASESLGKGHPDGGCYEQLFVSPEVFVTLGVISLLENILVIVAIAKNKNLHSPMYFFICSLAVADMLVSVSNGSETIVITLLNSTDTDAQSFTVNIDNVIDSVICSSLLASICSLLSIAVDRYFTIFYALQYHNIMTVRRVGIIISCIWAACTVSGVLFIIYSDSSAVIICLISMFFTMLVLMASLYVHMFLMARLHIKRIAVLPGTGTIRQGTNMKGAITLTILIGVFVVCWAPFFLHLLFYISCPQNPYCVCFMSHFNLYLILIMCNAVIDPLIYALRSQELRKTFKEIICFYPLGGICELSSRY
UniProt P33033: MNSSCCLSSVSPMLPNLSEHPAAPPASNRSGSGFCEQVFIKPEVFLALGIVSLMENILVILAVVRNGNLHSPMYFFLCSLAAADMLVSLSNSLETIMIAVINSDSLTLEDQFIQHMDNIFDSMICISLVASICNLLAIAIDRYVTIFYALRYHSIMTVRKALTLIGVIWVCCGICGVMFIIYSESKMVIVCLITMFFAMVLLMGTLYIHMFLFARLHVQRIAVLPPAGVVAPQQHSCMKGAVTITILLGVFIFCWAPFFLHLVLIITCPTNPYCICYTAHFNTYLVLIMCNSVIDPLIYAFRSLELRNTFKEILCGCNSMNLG

Columns and labels:
mMC4R = mMC4R (Mus musculus, UniProt P56450); assay: 125I-NDP-MSH competitive binding assay at mMC4R
mMC3R = mMC3R (Mus musculus, UniProt P33033); assay: 125I-NDP-MSH competitive binding assay at mMC3R; set-up: expressed in transfected cells
Method: A typical experiment utilized a 12-well format. […] Pharm. Des.
The plates were incubated at 37° C. with 5% CO2 for 1 hour. Post incubation, the media was aspirated, each well was washed with 500 μL assay media, and cells were lysed with 500 μL of 0.1 M NaOH and 500 μL of 1% Triton x-100.
Following a 10-15 minute room temperature incubation, the cell lysate mixture was transferred to 12×75 mm polystyrene tubes and the radioactivity was quantified using a WIZARD^2 Automatic Gamma Counter (Perkin-Elmer). […] GraphPad, Inc), and dose-response curves in addition to the corresponding IC50 values were calculated by a non-linear regression method. Each reported value represents the mean and standard error of the mean (SEM) of, at least, two independent experiments each containing two experimental replicates.
Note each reported value represents the mean and standard error of the mean (SEM) of at least two independent experiments containing two experimental replicates.

SMILES | fold decrease in binding affinity (IC50) at the mMC4R compared to SKY4-48-1 (mMC4R) | fold improvement of binding IC50 at the mMC3R compared to SKY4-48-1 (mMC3R)
CC(=O)N[C@H](Cc1ccccc1)C(=O)N[C@@H](Cc1ccc(I)cc1)C(=O)N[C@H](CCCNC(=N)N)C(=O)N[C@H](Cc1c[nH]cn1)C(N)=O [SKY5-122-2, Ac-DPhe-(pI)Phe-DArg-DHis-NH2] (Ac-[dF][Phe(4-I)][dR][dH]-NH2) | 55- to 326 fold | 14- to 64 fold
CC(=O)N1Cc2ccccc2C[C@@H]1C(=O)N[C@@H](Cc1ccc(I)cc1)C(=O)N[C@H](CCCNC(=N)N)C(=O)N[C@H](Cc1cnc[nH]1)C(N)=O [SKY5-122-1, Ac-DTic-(pI)Phe-DArg-DHis-NH2] (Ac-[dTic][Phe(4-I)][dR][dH]-NH2) | 55- to 326 fold | 14- to 64 fold
